Measurements from the supplement of paper PMC6445147.
Values scatter widely in this assay.

B1: human tRNA-Pro; a variant is named by its letters at N, in order (parent)
chain: GGCTCGTTGGTCTAGNGGTATGATTCTCGCTTAGGGTGCGAGAGGTCCCGGGTTCNNATCCCGGACGAGCCC

How the values were obtained:
[1] = variants of: B1; experiment: tRNA Pol-III promoter activity, log2 (circRNA frequency / plasmid DNA frequency) (log2 ratio); higher = stronger promoter activity; conditions: HEK293T; construct: no Pol-II promoter ((-)CMV library)
[2] = variants of: B1; experiment: tRNA 3' processing efficiency (processed reads / all reads, maximum-likelihood estimate) (fraction); higher = more efficient 3' processing; conditions: HEK293T; construct: no Pol-II promoter ((-)CMV library)
[3] = variants of: B1; experiment: tRNA 5' processing efficiency (processed reads / all reads, maximum-likelihood estimate) (fraction); higher = more efficient 5' processing; conditions: HEK293T; construct: CMV Pol-II promoter ((+)CMV library, decapped)

| Variant | tRNA Pol-III promoter activity (log2) [1] | tRNA 3' processing efficiency [2] | tRNA 5' processing efficiency [3] |
| --- | --- | --- | --- |
| TTA C55G A58T | 6.26 | 0.7 |  |
| GTA A14G T59C | 3.88 | 0.24 |  |
| GTA A14G T59A | 4.96 | 0.26 |  |
| GTA A20G A58C | 3.67 | 0.2 |  |
| GTA A20G A58G | 4.26 | 0.4 |  |
| GTA G9A T19A T59C | 5.03 | 0.5 |  |
| GTA A14G G18T A58T | 8.45 | 0.13 |  |
| GTA G9A A20T T59A | 5.64 | 0.62 |  |
| GTA G9A | 1.71 | 0.17 | 0.2 |
| TTA A14G G17T A58C | 8.11 | 0.22 |  |
| GTA A14T | 3.15 | 0.36 |  |
| ATA A20T A58T | 8.43 | 0.43 |  |
| GTA G9A A14G A58T | 6.25 | 0.2 |  |
| GTA A14G G17T A20T | 4.53 | 0.17 |  |
| CTA C55G A58G | 4.4 | 0.33 |  |
| TTA C55T | 3.04 | 0.57 |  |
| TTA C55A | 3.72 | 0.33 |  |
| TTA C55G | 3.23 | 0.75 |  |
| TTA A14T T59A | 5.03 | 0.25 |  |
| GTA A14T A58T T59C | 5.26 | 0.57 |  |
| CTA A20T | 2.85 | 0.25 |  |
| CTA A20G | 3.18 | 0.23 |  |
| TTA A20T A58C | 4.74 | 0.57 |  |

| Variant | tRNA Pol-III promoter activity (log2) [1] | tRNA 3' processing efficiency [2] | tRNA 5' processing efficiency [3] |
| --- | --- | --- | --- |
| GTA A14T T19A A58T | 3.51 | 0.17 |  |
| GTA G9A A20G | 1.19 | 0.25 |  |
| CTA A14T | 2.31 | 0.24 |  |
| GTA A20T A58C | 2.93 | 0.38 |  |
| GTA A20T A58T | 3.55 | 0.51 |  |
| GTA A20C A58G | 4.09 | 0.21 |  |
| GTA A14T A20T T59C | 5.51 | 0.45 |  |
| GTA A14T T53A | 3.71 | 0.5 |  |
| GTA A58T T59C | 3 | 0.35 |  |
| GTA A58T T59A | 4.31 | 0.38 |  |
| TTA A14T | 2.34 | 0.31 |  |
| TTA A20G A58T | 4.59 | 0.27 |  |
| TTA A20G A58C | 5.91 | 0.73 |  |
| TTA A20G | 3.43 | 0.24 |  |
| TTA A20T | 2.64 | 0.2 |  |
| GTA A20C | 1.11 | 0.29 |  |
| GTA A20G | 0.876 | 0.3 |  |
| GTA A20T | 1.68 | 0.4 | 0.5 |
| CTA A58T | 3.46 | 0.26 |  |
| CTA A58G | 4.53 | 0.14 |  |
| CTA A58C | 6.35 | 0.37 |  |
| GTA A14T G17T A20T | 4.36 | 0.4 |  |
| GTA G9A T59G | 2.12 | 0.25 |  |

| Variant | tRNA Pol-III promoter activity (log2) [1] | tRNA 3' processing efficiency [2] | tRNA 5' processing efficiency [3] |
| --- | --- | --- | --- |
| CTA A14T A58T | 5.84 | 0.57 |  |
| CTA A14T A58C | 6.03 | 0.13 |  |
| ATA A58C | 4.49 | 0.48 |  |
| ATA A58G | 4.45 | 0.2 |  |
| ATA A58T | 5.26 | 0.43 |  |
| GTA A58C T59C | 7.21 | 0.24 |  |
| TTA A20G A58C T59C | 5.03 | 0.25 |  |
| TTA G9A | 4.48 | 0.38 |  |
| GTA A14T T19C | 5.03 | 0.25 |  |
| GTA A14T T19A | 3.94 | 0.64 |  |
| GTA A14T T19G | 2.76 | 0.5 |  |
| TTA G9A A14C | 2.93 | 0.25 |  |
| GTA A58C | 3.44 | 0.29 |  |
| GTA A58G | 4.08 | 0.29 | 0.25 |
| GTA A58T | 2.79 | 0.4 |  |
| ATA A20G | 4.3 | 0.61 |  |
| ATA A20C | 2.67 | 0.2 |  |
| GTA A14T G17T | 1.51 | 0.33 |  |
| GTA G9C A20C | 5.36 | 0.8 |  |
| GTA A14G T19A A58C | 5.74 | 0.14 |  |
| GTA A14G T19G | 3.25 | 0.1 |  |
| GTA A14G T19A | 2.86 | 0.56 |  |
| ATA A14T | 2.36 | 0.25 |  |

| Variant | tRNA Pol-III promoter activity (log2) [1] | tRNA 3' processing efficiency [2] | tRNA 5' processing efficiency [3] |
| --- | --- | --- | --- |
| TTA A14T T53A | 4.62 | 0.29 |  |
| ATA A20G A58T | 4.52 | 0.14 |  |
| GTA A33T | 5.74 | 0.57 |  |
| CTA G9C A58C | 4.93 | 0.5 |  |
| ATA A14G T59C | 10.2 | 0.41 |  |
| GTA C55G A58T | 1.83 | 0.4 |  |
| GTA G9A G15C | 5.28 | 0.26 |  |
| CTA C55T | 4.19 | 0.39 |  |
| CTA C55A | 2.93 | 0.33 |  |
| CTA C55G | 3.26 | 0.4 |  |
| TTA A58C | 4.04 | 0.4 |  |
| TTA A58G | 4.18 | 0.09 |  |
| TTA A58T | 4.15 | 0.27 |  |
| GTA A14T A58C | 3.22 | 0.23 |  |
| GTA A14T A58T | 3.51 | 0.25 |  |
| GTA A14T A58G | 3.2 | 0.15 |  |
| GTA A14G G15A | 3.72 | 0.5 |  |
| ATA G9A A58G | 5.75 | 0.43 |  |
| GTA A14G G17T | 5.08 | 0.18 |  |
| GTA A14T G18A | 3.36 | 0.33 |  |
| GTA A14T G18T | 5.91 | 0.73 |  |
| GTA A14T G18C T59C | 6.51 | 0.33 |  |
| ATA G9A | 3.22 | 0.64 |  |

| Variant | tRNA Pol-III promoter activity (log2) [1] | tRNA 3' processing efficiency [2] | tRNA 5' processing efficiency [3] |
| --- | --- | --- | --- |
| GTA G9A A14T A58G | 4.03 | 0.83 |  |
| GTA A58G T59C | 4.62 | 0.41 |  |
| GTA A58G T59A | 3.29 | 0.29 |  |
| GTA A58G T59G | 4.58 | 0.42 |  |
| GTA G9A T53G | 1.55 | 0.25 |  |
| GTA G9A T53C | 2.93 | 0.62 |  |
| GTA A14T G15A | 2.56 | 0.2 |  |
| GTA A14T G15C | 2.13 | 0.5 |  |
| GTA A20T T59C | 4.42 | 0.31 |  |
| GTA A14G T54A | 2.43 | 0.5 |  |
| TTA A14T A58T | 6.93 | 0.38 |  |
| GTA A14T T59G | 3.4 | 0.83 |  |
| GTA A14T T59A | 4.62 | 0.17 |  |
| GTA G9A C55G A58T | 3.34 | 0.17 |  |
| GTA G9A A58T | 4.68 | 0.15 |  |
| GTA G9A A58G | 3.75 | 0.29 |  |
| GTA G9A A58C | 2.77 | 0.21 |  |
| GTA A14G G18T | 2.32 | 0.17 | 0.2 |
| GTA A20T T53G | 3.57 | 0.14 |  |
| GTA C55T | -0.839 | 0.41 |  |
| GTA C55A | -1.49 | 0.25 |  |
| CTA G9A | 6.74 | 0.5 |  |
| GTA A20G T59C | 6.1 | 0.14 |  |

In another format: entries from further up
GTA A14T G15A
  tRNA Pol-III promoter activity (log2) [1] = 2.56; tRNA 3' processing efficiency [2] = 0.2
GTA A14T G15C
  tRNA Pol-III promoter activity (log2) [1] = 2.13; tRNA 3' processing efficiency [2] = 0.5
GTA A20T T59C
  tRNA Pol-III promoter activity (log2) [1] = 4.42; tRNA 3' processing efficiency [2] = 0.31
